The supplement of paper PMC10849652
The other results are listed elsewhere or left out.

Sequences of proteins named here, by UniProt entry; tags and fusion partners are left off. A change or cut given only in a name is not applied to a line headed by its entry.
UniProt Q8WXG6, whole entry, looked up: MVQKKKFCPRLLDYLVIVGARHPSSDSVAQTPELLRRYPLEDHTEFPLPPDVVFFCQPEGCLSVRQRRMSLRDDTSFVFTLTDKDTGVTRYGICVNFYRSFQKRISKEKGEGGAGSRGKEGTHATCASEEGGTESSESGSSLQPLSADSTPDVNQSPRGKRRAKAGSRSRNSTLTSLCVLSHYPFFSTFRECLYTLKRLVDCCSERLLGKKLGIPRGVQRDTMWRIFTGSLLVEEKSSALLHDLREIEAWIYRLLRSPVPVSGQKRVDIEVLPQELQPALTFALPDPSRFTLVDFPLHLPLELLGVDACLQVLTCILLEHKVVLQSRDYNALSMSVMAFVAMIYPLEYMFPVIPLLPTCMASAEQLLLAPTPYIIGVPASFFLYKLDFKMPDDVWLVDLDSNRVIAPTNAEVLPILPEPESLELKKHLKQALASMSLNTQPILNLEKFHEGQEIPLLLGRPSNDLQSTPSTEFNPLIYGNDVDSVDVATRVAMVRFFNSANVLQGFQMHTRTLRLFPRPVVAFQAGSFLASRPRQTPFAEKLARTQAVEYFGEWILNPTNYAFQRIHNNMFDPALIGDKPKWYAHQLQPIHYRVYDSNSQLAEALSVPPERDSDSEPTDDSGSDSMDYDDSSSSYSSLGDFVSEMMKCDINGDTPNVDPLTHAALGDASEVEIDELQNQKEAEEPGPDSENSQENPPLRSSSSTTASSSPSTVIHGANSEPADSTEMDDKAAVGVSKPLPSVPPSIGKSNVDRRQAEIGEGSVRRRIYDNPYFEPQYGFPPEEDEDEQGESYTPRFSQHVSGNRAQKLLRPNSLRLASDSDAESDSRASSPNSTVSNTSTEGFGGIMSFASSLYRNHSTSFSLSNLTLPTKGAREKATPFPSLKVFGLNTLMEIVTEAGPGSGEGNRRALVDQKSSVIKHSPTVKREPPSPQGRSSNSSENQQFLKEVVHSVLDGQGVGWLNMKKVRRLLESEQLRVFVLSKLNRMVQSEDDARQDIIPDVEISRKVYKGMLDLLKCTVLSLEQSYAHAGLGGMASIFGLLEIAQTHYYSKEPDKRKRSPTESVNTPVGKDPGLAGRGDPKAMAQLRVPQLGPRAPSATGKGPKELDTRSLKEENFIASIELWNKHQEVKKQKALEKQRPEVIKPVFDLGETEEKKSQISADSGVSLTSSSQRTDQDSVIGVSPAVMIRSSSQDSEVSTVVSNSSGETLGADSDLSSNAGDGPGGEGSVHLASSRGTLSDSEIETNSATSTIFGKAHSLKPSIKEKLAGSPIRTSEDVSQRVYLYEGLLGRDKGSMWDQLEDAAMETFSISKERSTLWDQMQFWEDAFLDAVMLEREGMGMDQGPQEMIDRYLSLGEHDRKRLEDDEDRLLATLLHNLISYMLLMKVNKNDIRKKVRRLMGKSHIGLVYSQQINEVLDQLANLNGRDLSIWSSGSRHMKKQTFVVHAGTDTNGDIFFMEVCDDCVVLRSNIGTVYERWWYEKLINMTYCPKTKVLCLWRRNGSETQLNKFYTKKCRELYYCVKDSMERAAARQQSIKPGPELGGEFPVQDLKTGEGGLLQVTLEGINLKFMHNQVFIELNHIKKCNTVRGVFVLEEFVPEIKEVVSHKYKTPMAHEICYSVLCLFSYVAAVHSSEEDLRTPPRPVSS
UniProt P45983: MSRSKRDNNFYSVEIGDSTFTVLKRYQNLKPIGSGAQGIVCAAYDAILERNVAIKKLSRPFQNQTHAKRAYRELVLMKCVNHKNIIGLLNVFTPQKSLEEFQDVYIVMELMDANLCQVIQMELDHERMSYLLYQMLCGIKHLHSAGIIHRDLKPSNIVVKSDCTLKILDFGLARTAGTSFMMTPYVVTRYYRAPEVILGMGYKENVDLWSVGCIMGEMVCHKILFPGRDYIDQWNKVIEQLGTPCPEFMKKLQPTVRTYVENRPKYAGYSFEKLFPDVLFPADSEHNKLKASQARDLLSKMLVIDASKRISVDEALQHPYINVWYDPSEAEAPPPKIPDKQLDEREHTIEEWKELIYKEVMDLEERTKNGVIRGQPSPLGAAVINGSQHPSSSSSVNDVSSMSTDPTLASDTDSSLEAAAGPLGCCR
UniProt Q7Z3D4: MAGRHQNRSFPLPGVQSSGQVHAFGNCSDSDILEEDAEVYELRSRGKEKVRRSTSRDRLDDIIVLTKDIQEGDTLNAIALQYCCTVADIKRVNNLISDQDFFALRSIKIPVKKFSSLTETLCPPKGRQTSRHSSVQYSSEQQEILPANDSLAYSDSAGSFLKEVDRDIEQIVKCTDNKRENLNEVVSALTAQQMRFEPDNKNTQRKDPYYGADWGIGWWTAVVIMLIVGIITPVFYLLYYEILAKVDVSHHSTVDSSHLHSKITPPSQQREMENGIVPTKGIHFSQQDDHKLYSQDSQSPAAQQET
UniProt Q9NU23: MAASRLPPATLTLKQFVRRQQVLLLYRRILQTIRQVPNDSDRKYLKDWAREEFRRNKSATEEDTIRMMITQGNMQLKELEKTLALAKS
UniProt Q9Y2U5: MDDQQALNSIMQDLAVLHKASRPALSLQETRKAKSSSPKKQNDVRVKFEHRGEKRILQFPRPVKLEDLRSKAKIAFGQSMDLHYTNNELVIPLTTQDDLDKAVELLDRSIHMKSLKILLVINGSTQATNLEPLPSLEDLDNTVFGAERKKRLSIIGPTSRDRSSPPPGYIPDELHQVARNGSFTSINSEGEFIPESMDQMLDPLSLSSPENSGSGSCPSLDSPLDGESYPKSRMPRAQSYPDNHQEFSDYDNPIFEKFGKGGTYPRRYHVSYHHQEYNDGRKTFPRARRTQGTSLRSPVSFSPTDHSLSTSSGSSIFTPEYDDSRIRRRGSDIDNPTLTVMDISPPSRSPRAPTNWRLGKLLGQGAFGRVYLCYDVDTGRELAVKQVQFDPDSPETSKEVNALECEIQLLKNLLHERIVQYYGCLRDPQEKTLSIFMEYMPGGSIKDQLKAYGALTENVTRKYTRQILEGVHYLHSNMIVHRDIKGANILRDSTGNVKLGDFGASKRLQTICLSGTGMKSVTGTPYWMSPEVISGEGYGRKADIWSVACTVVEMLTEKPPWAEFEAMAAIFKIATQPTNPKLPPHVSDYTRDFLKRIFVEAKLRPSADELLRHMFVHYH
UniProt Q8IW41: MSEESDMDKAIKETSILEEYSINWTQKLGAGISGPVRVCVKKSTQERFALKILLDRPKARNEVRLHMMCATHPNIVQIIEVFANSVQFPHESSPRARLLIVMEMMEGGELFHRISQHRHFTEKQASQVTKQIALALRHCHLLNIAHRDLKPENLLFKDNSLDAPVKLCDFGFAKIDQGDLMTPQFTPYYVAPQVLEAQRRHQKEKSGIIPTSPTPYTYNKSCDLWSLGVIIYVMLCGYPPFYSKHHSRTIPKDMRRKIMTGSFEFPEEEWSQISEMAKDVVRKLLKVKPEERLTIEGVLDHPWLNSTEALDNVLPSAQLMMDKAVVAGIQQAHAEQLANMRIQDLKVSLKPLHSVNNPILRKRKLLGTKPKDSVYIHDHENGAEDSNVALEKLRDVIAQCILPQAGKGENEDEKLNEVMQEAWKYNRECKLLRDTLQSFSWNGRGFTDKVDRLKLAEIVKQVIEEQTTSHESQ
UniProt Q9BRK4: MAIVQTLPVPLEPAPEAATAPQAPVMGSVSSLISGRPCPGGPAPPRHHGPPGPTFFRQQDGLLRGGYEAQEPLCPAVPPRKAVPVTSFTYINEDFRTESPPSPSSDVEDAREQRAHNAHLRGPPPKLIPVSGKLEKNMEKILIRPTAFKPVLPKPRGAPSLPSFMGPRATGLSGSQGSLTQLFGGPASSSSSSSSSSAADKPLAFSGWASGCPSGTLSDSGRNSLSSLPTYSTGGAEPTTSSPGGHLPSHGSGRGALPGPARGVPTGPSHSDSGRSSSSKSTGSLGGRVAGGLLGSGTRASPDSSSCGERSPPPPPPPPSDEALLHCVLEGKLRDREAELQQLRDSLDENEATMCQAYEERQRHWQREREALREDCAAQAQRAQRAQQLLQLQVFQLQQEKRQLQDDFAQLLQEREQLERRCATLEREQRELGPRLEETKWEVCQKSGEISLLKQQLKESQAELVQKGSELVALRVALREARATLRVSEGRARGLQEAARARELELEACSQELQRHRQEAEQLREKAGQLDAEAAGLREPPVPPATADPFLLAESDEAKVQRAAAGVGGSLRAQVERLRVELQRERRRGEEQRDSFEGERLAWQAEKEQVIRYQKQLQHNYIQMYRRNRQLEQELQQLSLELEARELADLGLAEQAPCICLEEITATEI
UniProt P43365, whole entry, looked up: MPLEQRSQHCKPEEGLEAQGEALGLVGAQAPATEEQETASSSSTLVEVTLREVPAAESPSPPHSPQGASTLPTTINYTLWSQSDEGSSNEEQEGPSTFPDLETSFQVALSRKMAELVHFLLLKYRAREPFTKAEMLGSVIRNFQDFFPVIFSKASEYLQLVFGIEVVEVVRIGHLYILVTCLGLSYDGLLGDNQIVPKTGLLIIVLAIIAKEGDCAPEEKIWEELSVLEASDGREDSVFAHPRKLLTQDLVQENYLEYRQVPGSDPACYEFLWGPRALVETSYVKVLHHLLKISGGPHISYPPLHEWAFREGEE

Columns and labels:
Experiment in all cases: log2 fold change, soluble protein after heating vs DMSO (PISA); higher = thermal stabilisation; K562 lysate, 10 uM; active = over 0.2 and 3.5 SD of the protein, either way, in both replicates (recomputed)
[1] = compound: NCC(=O)Nc1ccc(-n2nc(C(F)(F)F)cc2-c2ccc3c(ccc4ccccc43)c2)cc1
Outline: (§1)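 Soluble protein was defined as the supernatant remaining after 21,000xg for 90 min, following pooling of heated aliquots and adjustment to 0.5% NP-40 at 4°C. Before that, crude K562 extract at 1 mg/mL protein in PBS pH 7.4 with 1 mM MgCl2 was treated with 10 μM compound for 30 min and heated for 3 min across 48°C-58°C. Quantification used TMTpro 16plex LC-MS/MS with channel sums equalised, and values are log-two fold changes in thermal stability relative to solvent controls from duplicates.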

vorinostat = compound: O=C(CCCCCCC(=O)Nc1ccccc1)NO [vorinostat]
Outline: as §1

silmitasertib = compound: O=C(O)c1ccc2c(c1)nc(Nc1cccc(Cl)c1)c1ccncc12 [silmitasertib]
Outline: as §1

[2] = compound: O=C1NC(=O)C(c2cnc3ccccn23)=C1c1cn2c3c(cc(F)cc13)CN(C(=O)N1CCCCC1)CC2
Outline: as §1

entospletinib = compound: c1cn2cc(-c3ccc4cn[nH]c4c3)nc(Nc3ccc(N4CCOCC4)cc3)c2n1 [entospletinib]
Outline: as §1

## MADD isoform 4 (UniProt Q8WXG6)
[1]
  log2 fold change: inactive: 0.019
vorinostat
  log2 fold change: inactive: -0.192
silmitasertib
  log2 fold change: inactive: -0.011
[2]
  log2 fold change: inactive: 0.003
entospletinib
  log2 fold change: inactive: 0.039

## MAPK8 isoform 3 (UniProt P45983)
[1]
  log2 fold change: inactive: 0.064
vorinostat
  log2 fold change: active: -0.395
silmitasertib
  log2 fold change: inactive: 0.007
[2]
  log2 fold change: inactive: 0.038
entospletinib
  log2 fold change: inactive: -0.039

## LYSMD3 (UniProt Q7Z3D4)
[1]
  log2 fold change: inactive: 0.01
vorinostat
  log2 fold change: inactive: 0.095
silmitasertib
  log2 fold change: inactive: -0.022
[2]
  log2 fold change: inactive: -0.029
entospletinib
  log2 fold change: inactive: 0.028

## MAP1LC3B2 (UniProt A6NCE7)
[1]
  log2 fold change: inactive: 0.007
vorinostat
  log2 fold change: inactive: 0.135
silmitasertib
  log2 fold change: inactive: 0.016
[2]
  log2 fold change: inactive: -0.02
entospletinib
  log2 fold change: inactive: 0.017

## LYRM2 (UniProt Q9NU23)
[1]
  log2 fold change: inactive: 0.055
vorinostat
  log2 fold change: inactive: 0.109
silmitasertib
  log2 fold change: inactive: 0.017
[2]
  log2 fold change: inactive: -0.133
entospletinib
  log2 fold change: inactive: -0.045

## MAP3K2 (UniProt Q9Y2U5)
[1]
  log2 fold change: inactive: 0.435
vorinostat
  log2 fold change: inactive: -0.016
silmitasertib
  log2 fold change: inactive: -0.008
[2]
  log2 fold change: inactive: 0.087
entospletinib
  log2 fold change: inactive: 0.005

## MAPKAPK5 (UniProt Q8IW41)
[1]
  log2 fold change: inactive: -0.012
vorinostat
  log2 fold change: inactive: 0.07
silmitasertib
  log2 fold change: inactive: 0.002
[2]
  log2 fold change: inactive: 0.052
entospletinib
  log2 fold change: inactive: 0.028

## LZTS2 (UniProt Q9BRK4)
[1]
  log2 fold change: inactive: 0.163
vorinostat
  log2 fold change: inactive: -0.055
silmitasertib
  log2 fold change: inactive: 0.041
[2]
  log2 fold change: inactive: 0.048
entospletinib
  log2 fold change: inactive: -0.064

## MAGEA12 (UniProt P43365)
[1]
  log2 fold change: inactive: 0.006
[2]
  log2 fold change: inactive: 0.012
entospletinib
  log2 fold change: inactive: -0.077
